Results as given in PubChem BioAssay AID588401 (Johns Hopkins Ion Channel Center, 2011).
Listed are the inconclusive results; actives and inactives stand elsewhere.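 How the source made its calls: active means blocks the choline transporter at some tested dose and yields a fitted dose response curve; inconclusive means no clear call, values can overlap the other calls; inactive means no blocking at any dose or no curve.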

Chains of the proteins cited; added tags and fusions are not shown. Lines headed by an entry give the natural chain unless they say otherwise; changes in a name come on top.
UniProt Q9GZV3: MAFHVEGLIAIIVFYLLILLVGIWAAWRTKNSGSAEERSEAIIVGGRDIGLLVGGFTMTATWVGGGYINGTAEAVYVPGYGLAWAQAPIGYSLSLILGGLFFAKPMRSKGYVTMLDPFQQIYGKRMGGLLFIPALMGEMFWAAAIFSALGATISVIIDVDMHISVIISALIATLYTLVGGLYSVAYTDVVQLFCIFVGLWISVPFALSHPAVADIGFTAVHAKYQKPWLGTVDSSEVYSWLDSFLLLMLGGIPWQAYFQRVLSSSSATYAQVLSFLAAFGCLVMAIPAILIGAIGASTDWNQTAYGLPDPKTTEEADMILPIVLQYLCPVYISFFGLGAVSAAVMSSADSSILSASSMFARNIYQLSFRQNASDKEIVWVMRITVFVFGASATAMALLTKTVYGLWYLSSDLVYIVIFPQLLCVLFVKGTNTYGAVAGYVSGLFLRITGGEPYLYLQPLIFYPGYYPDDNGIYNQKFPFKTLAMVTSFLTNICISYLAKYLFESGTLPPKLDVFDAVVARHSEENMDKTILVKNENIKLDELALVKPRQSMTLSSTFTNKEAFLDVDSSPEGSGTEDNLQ

Molecular target: High affinity choline transporter 1 (Homo sapiens) (UniProt Q9GZV3)
Test: human choline transporter blockers, potency – cell-based, 10-point CRC, membrane potential dye, dose response (AID 588401)
Conditions: HEK293-CHT, choline-induced depolarization, cells express LV-AA mutant CHT; at 25 µM (top of the series)

**Q.** Which inhibition (negative values = inhibition) does the source give for `CC(C)NC[C@H](O)c1ccc(O)c(O)c1` here?
**A.** The inhibition (negative values = inhibition) was inconclusive: -54.4%.
